Results taken from article PMC12670160, “A drug-repurposing screen of FDA- and EMA-approved drugs identifies two NF-κB inhibitors active against eumycetoma” (Journal of Antimicrobial Chemotherapy, 2025).
Counter-ions that a name gives are not always drawn. About 130 (2.5%) of roughly 5,300 compounds showed an effect of 50% or more. The list shows a part of the results.

Test system: M. mycetomatis strain mm55
Settings: primary screen, metabolic activity vs growth control; 96 h, 2 µM; inhibitor

Point of comparison: `CO[C@@]1(NC(=O)Cc2cccs2)C(=O)N2C(C(=O)O)=C(COC(N)=O)CS[C@@H]21` [ONC0000614, cefoxitin sodium], “% viability” value 103.5%. Against it:
- CC1(COc2ccc3c(c2)ncn3-c2ccc3cccc(N4CCC(N)CC4)c3n2)COC1 [ONC0005080, crenolanib cp868596] — lower, 89.76%
- OCCCNc1ccccc1 [ONC0003715, 3anilinopropan1ol] — higher, 126.6%
- CC(=O)c1ccc2c(c1)N(CCCN1CCC(CCO)CC1)c1ccccc1S2 [ONC0003795, piperacetazine] — lower, 78.77%
- N#Cc1cn([C@@H]2O[C@H](CO)[C@@H](O)[C@H]2O)c2ncnc(N)c12 [ONC0003230, toyocamycin] — lower, 99.22%
- Cc1cccc(C(C)c2cnc[nH]2)c1C (stereo not shown) [ONC0000020, medetomidine] — higher, 129.2%
- C[N+]1(C)CCCC(OC(=O)C(O)(c2ccccc2)c2ccccc2)C1 (stereo not shown) [ONC0000467, mepenzolate bromide] — lower, 73.84%
- C[C@@H](Oc1cc(-n2cnc3ccc(CN4CCN(C)CC4)cc32)sc1C(N)=O)c1ccccc1C(F)(F)F [ONC0004607, gsk461364] — lower, 78.32%
- O=C(CCCN1CCC(O)(c2ccc(Br)cc2)CC1)c1ccc(F)cc1 [ONC0004033, bromperidol] — lower, 59.81%
- Cc1cc(-c2nc3cc(F)ccc3s2)ccc1NC(=O)[C@@H](N)CCCCN [ONC0001974, phortress] — lower, 72.02%
- COc1ccc(S(=O)(=O)Nc2nc(-c3cccc([N+](=O)[O-])c3)cs2)cc1OC [ONC0002261, ro 618048] — lower, 90.96%
- CNCC[C@H](Oc1cccc2ccccc12)c1cccs1 [ONC0003995, duloxetine hydrochloride] — lower, 75.72%
- Nc1cccc2c(=O)[nH][nH]c(=O)c12 [ONC0001171, luminol] — lower, 97.7%
- CCCCCCCCCCC(O)C1C=CC2C(=O)N(c3ccccc3)C(=O)C2N1Nc1ccc([N+](=O)[O-])cc1 (stereo not shown) [ONC0001250, a12b4c3] — lower, 87.51%
- N=C(N)NC(=O)c1nc(Cl)c(N)nc1N [ONC0000339, amiloride hydrochloride] — lower, 57.59%
- O=C(CO)[C@@H](O)[C@@H](O)[C@H](O)CO [ONC0004055, dtagatose] — higher, 131.4%
- CC(Cc1ccccc1)(NC(=O)CN)c1ccccc1 (stereo not shown) [ONC0002490, remacemide] — lower, 68.5%
- COc1ccc(Cc2cnc(N)nc2N)cc1OC [ONC0004173, diaveridine] — lower, 54.75%
- CN(C)C(=O)COC(=O)Cc1ccc(OC(=O)c2ccc(NC(=N)N)cc2)cc1 [ONC0004786, camostat mesilate foy305] — lower, 89.86%
- CCCCOc1c(C(=O)c2c(F)cc(C)cc2F)c[nH]c2nncc1-2 [ONC0005009, bms265246] — lower, 77.83%
- CCC(=O)N1CCOc2c(cc(-c3ccc(OC)c(OC)c3)cc2OC[C@H]2CCCN(C)C2)C1 [ONC0000119, icbp112] — lower, 80.5%
- CC(C)(C)C(=O)OCOC(=O)[C@@H]1N2C(=O)[C@@H](NC(=O)[C@H](N)c3ccccc3)[C@H]2SC1(C)C [ONC0002359, pivampicillin] — lower, 80.23%
- COc1cccc(OC)c1OCCNCC1COc2ccccc2O1 (stereo not shown) [ONC0004267, wb4101] — lower, 70.08%
- O=C1NCN(c2ccccc2)C12CCN(CCCC(c1ccc(F)cc1)c1ccc(F)cc1)CC2 [ONC0003520, fluspirilene] — lower, 48.06%
- O=C(Nc1ccc(-c2ccnc(Nc3ccc(N4CCOCC4)cc3)n2)cc1)[C@@H]1CCCN1 [ONC0005105, xl019] — lower, 82.25%
- Cc1ccc(C(C)C)c(OC=C2NCCN2)c1 [ONC0005561, tymazoline] — lower, 90.75%
- O=c1cc(N2CCN(c3cccc(C(F)(F)F)c3)CC2)[nH]c(=O)n1C1CCCCC1 [ONC0000243, ml179] — lower, 73.38%
- CC[S+]([O-])c1nc(-c2cccc(OCc3ccccc3)c2)cc(C(F)(F)F)n1 (stereo not shown) [ONC0000089, betp] — lower, 100.3%
- CCCCC1=NC2(CCCC2)C(=O)N1Cc1ccc(-c2ccccc2-c2nnn[nH]2)cc1 [ONC0004275, irbesartan] — lower, 80.52%
- NC(=O)Cc1cccc(C(=O)c2ccccc2)c1N [ONC0004683, nepafenac] — higher, 115.4%
- C[C@H]1COC2=C1C(=O)C(=O)c1c2ccc2c1CCCC2(C)C [ONC0001081, cryptotanshinone] — lower, 49.66%
- CN(C)CC[C@H](CSc1ccccc1)Nc1ccc(S(=O)(=O)NC(=O)c2ccc(N3CCN(Cc4ccccc4-c4ccc(Cl)cc4)CC3)cc2)cc1[N+](=O)[O-] [ONC0004360, abt737] — lower, 77.62%
- CN(C)CCC(O)(c1ccccc1)c1ccccc1Cl (stereo not shown) [ONC0002125, clofedanol] — lower, 64.84%
- CSc1ccccc1OCC(O)CNC(C)C (stereo not shown) [ONC0003198, tiprenolol] — lower, 96.68%
- CCOc1ccccc1OCC1CNCCO1 (stereo not shown) [ONC0002324, viloxazine] — lower, 79.07%
- CC[C@H]1OC(=O)[C@H](C)[C@@H](O[C@H]2C[C@@](C)(OC)[C@@H](O)[C@H](C)O2)[C@H](C)[C@@H](O[C@@H]2O[C@H](C)C[C@H](N(C)C)[C@H]2O)[C@](C)(OC)C[C@@H](C)C(=O)[C@H](C)[C@@H](O)[C@]1(C)O [ONC0003947, clarithromycin] — lower, 65.77%
- COCCN1CCC(C(=O)NO)(S(=O)(=O)c2ccc(Oc3ccc(OC(F)(F)F)cc3)cc2)CC1 [ONC0000013, sd2590] — higher, 105.6%
- N[C@@H]1CCCCN(c2c(F)cc3c(=O)c(C(=O)O)cn(C4CC4)c3c2Cl)C1 [ONC0004995, besifloxacin hcl besivance] — lower, 82.01%
- O=[N+]([O-])c1ccc2c(c1)S(=O)(=O)C=C2 [ONC0004631, stattic] — lower, 95.29%
- C/C(O)=C(\C#N)C(=O)Nc1cc(Br)ccc1Br [ONC0000434, lfma13] — lower, 65.14%
- CSC[C@H](N)C(=O)O [ONC0003388, smethylcysteine] — lower, 83.56%
- CCN(Cc1ccc(Cl)nc1)/C(=C/[N+](=O)[O-])NC [ONC0004553, nitenpyram] — lower, 78.6%
- O=C(Nc1cc(C(F)(F)F)ccc1O)Nc1cc(C(F)(F)F)ccc1O [ONC0002555, ns1643] — higher, 109.7%
- Cc1ccccc1-n1c(Cn2ncc3c(N)ncnc32)nc2cccc(C)c2c1=O [ONC0005229, pik293] — higher, 119%
- COc1[nH]c2ccc(F)cc2c1C(=O)OCC1CCN(CCNS(C)(=O)=O)CC1 [ONC0001723, gr125487 sulfamate] — lower, 72.72%
- CCCCOC(=O)c1ccc(N)cc1 [ONC0000690, butamben] — higher, 111%
- O=C(Nc1ccc(C(=O)O)c(O)c1)c1ccccc1 [ONC0003998, benzoylpas] — lower, 92.12%
- Cc1cc(OCC(=O)O)cc(C)c1Cc1ccc(O)c(C(C)C)c1 [ONC0002599, sobetirome] — lower, 88.03%
- CCN(Cc1ccccc1)C(=O)Cn1c(=O)n(C)c2cnc(-c3ccccc3)nc21 [ONC0005422, emapunil] — higher, 111.5%
- CN1CCN(C(=O)C2C(C(=O)O)[C@@H]3CC[C@H]2O3)CC1 (stereo partly shown) [ONC0001871, lb100] — higher, 109.3%
- Nc1nc(=O)n([C@H]2C[C@H](O)[C@@H](CO)O2)cc1F [ONC0004119, 5fluoro2deoxycytidine] — lower, 7.324%
- CNC(=O)c1ccc(-c2cnc3ncc(Cc4ccc5ncccc5c4)n3n2)cc1F [ONC0004567, capmatinib incb28060] — lower, 64.35%
- CC(C)c1ccc(C(=O)c2cccs2)c(SCCCCCCCCN(C)C)n1 [ONC0001866, y29794 oxalate] — lower, 74.26%
- Cc1ccc(S(=O)(=O)n2c(N)nc3ccccc32)cc1 [ONC0004495, ml130] — lower, 59.06%
- COc1cc2c(cc1O)CC[C@@H]1[C@@H]2CC[C@]2(C)[C@@H](O)CC[C@@H]12 [ONC0000179, 2methoxyestradiol] — higher, 105.8%
- CCOC(=O)[C@H](CCc1ccccc1)N[C@@H](C)C(=O)N1[C@H](C(=O)O)C[C@@H]2CCC[C@@H]21 [ONC0004306, ramipril] — lower, 82.17%
- NC(C(=O)O)c1nnn[nH]1 (stereo not shown) [ONC0002522, tetrazol5ylglyciners] — lower, 80.86%
- CCCCCCCCCCCCCCCCNc1ccc(C(=O)O)cc1 [ONC0000364, cetaben] — lower, 78.57%
- O=C(NCc1ccncc1)C12CC3CC(C1)CC(c1ccc(Cl)cc1)(C3)C2 [ONC0005179, abc294640] — higher, 129.6%
- COc1cc(C(=O)c2c(C)oc3c(O)c(OC)ccc23)cc(OC)c1OC [ONC0001135, bnc105] — lower, 66.38%
- CCC(CC)(CC(=O)Nc1cccc(/C=C/c2nc(C3CCC3)cs2)c1)C(=O)O [ONC0001647, cinalukast] — lower, 77.68%
- NC(=O)c1ncn([C@@H]2O[C@H](CO)[C@@H](O)[C@H]2O)n1 [ONC0002426, ribavirin] — higher, 122.7%
- COc1cc2ncnc(Oc3cccc(NC(=O)Nc4cc(C(C)(C)C(F)(F)F)on4)c3)c2cc1OC [ONC0004356, cep32496] — lower, 100.9%
- COc1c(C)cnc(Cn2cc(C#CCC(C)(C)O)c3c(Cl)nc(N)nc32)c1C [ONC0000074, ec144] — higher, 147.5%
